Values quoted from earlier work in patent publication US7067500B2, “Betaines as adjuvants to susceptibility testing and antimicrobial therapy” (priority 1997, dated 2006).
At least one structure is not confirmed: it was looked up by name or label, or the drawing left a doubt.

Columns and labels:
[1] = tested on: five clinical isolates of MTB; conditions: without β-lactamase inhibitor; cited from earlier work
[2] = cited from earlier work

SMILES | activity against isolates [1] | Krafft point [2] [°C]
C[C@@H](O)[C@H]1C(=O)N2C(C(=O)O)=C(SCCN=CN)C[C@H]12 [imipenem] | showed some activity | 
CCCCCCCCCCCCCCCCCCCC[N+](C)(C)CCCCCCC(=O)[O-] [C20-carboxyhexylbetaine] |  | 20
